Reference: paper PMC9169357
No constants are given. Whether binding was seen depends on the method and setting. In cells and extracts the contact can be indirect. Some results given as binding are weak or reduced against the parent protein; the word gives no strength.

By UniProt entry, the sequences of proteins in these tests, tags left out. Residues count along the entry.
UniProt P02751, residues 32-2477: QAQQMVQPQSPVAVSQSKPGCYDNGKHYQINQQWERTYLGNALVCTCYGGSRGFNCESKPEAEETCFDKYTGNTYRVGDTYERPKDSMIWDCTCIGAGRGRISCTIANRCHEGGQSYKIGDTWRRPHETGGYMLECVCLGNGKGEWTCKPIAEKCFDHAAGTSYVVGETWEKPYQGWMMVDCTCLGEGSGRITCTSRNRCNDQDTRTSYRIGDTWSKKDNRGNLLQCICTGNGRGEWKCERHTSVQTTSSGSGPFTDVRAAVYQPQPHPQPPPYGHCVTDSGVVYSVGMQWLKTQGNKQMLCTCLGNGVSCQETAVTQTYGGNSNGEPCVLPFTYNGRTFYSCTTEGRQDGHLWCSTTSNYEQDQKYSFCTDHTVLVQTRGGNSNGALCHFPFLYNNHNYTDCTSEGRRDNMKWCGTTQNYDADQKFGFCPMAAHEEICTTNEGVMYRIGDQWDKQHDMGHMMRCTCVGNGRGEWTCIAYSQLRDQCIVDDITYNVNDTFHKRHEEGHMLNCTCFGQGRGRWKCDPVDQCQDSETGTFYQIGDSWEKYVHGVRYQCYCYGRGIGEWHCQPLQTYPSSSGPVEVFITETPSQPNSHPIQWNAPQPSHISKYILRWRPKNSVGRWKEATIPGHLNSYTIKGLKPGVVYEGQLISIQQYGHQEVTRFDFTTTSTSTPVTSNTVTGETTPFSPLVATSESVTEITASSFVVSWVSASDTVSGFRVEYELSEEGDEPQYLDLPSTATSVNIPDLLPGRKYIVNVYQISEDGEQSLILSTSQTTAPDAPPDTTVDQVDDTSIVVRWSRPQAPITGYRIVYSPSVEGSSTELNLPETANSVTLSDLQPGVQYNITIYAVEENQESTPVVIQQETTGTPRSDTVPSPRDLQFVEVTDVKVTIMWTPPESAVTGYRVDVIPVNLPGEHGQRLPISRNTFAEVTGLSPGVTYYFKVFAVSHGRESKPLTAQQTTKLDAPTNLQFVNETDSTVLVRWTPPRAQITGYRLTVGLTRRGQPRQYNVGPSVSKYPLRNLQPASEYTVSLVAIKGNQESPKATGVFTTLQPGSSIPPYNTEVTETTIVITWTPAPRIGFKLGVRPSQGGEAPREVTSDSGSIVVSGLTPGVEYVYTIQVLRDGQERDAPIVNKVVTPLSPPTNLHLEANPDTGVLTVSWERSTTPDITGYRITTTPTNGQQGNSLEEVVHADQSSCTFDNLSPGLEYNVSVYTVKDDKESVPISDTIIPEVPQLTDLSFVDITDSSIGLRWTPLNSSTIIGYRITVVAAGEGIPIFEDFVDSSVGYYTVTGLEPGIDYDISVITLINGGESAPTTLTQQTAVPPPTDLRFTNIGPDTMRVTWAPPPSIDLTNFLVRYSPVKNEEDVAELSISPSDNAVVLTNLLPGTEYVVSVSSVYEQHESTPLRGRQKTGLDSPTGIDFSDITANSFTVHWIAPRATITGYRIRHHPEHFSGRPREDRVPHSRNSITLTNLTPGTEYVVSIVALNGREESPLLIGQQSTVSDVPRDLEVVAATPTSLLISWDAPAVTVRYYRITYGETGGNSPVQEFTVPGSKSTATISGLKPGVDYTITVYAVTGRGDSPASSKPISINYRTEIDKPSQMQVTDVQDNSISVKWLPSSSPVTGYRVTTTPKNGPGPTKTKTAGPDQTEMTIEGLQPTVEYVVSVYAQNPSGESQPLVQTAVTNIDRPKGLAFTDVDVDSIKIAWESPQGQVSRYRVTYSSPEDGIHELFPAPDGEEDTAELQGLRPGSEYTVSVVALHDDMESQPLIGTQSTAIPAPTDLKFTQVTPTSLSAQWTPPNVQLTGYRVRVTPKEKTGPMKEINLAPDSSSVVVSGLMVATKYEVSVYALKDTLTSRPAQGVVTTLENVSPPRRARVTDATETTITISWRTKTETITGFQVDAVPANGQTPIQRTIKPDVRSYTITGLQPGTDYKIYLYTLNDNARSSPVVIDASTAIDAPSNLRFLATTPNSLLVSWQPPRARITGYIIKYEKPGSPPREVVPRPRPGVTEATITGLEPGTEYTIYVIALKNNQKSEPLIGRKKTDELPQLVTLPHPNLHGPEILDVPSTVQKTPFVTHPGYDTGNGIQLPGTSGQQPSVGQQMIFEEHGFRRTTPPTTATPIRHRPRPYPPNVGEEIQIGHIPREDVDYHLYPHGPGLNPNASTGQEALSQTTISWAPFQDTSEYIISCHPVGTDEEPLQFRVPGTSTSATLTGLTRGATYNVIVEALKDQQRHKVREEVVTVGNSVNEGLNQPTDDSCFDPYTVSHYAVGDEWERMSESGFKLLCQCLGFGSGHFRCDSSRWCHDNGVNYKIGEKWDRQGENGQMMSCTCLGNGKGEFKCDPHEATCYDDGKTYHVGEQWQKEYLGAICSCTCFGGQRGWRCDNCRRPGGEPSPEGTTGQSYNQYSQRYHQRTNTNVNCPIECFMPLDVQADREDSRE

Key:
[1] = target: T1, dysadherin (human (endogenous in SW480)) (UniProt Q96DB9); experiment: co-IP; co-IP with the anti-dysadherin antibody M53 from CRC cell lysates (SW480 with or without dysadherin KO; HCT116 with or without dysadherin OE), immunoblot for fibronectin
T1 sequence: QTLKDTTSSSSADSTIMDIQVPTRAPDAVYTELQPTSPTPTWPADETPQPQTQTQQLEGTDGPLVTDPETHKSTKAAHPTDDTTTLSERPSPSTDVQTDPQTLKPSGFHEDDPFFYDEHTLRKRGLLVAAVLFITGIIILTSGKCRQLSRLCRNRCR

[2] = target: T2, dysadherin overexpressed in HCT116 cells (UniProt Q96DB9); experiment: as above
T2 sequence: T1 sequence

**Q.** How did the binding [1] turn out when “fibronectin (from UniProt P02751 32-2477)” was run?
**A.** binds

**Q.** And the binding [2]?
**A.** binds
